In paper PMC5996148:
The other results are listed elsewhere or left out. For some assays here: The exact form of the protein is not confirmed.

Assays:
Assay in all cases: protein microarray (ProtoArray v5.0), streptavidin-Alexa Fluor 647
Details in all cases: 3'-biotin; 20 mM Tris (pH 7.5), 5 mM MgCl2, 100 mM KCl, 0.1% Tween-20, A/T-rich and random oligonucleotide blockers; temperature not stated; high values mean tight binding
TSC22D1 = molecular target: T1, TSC22D1 (UniProt Q15714)
T1 sequence: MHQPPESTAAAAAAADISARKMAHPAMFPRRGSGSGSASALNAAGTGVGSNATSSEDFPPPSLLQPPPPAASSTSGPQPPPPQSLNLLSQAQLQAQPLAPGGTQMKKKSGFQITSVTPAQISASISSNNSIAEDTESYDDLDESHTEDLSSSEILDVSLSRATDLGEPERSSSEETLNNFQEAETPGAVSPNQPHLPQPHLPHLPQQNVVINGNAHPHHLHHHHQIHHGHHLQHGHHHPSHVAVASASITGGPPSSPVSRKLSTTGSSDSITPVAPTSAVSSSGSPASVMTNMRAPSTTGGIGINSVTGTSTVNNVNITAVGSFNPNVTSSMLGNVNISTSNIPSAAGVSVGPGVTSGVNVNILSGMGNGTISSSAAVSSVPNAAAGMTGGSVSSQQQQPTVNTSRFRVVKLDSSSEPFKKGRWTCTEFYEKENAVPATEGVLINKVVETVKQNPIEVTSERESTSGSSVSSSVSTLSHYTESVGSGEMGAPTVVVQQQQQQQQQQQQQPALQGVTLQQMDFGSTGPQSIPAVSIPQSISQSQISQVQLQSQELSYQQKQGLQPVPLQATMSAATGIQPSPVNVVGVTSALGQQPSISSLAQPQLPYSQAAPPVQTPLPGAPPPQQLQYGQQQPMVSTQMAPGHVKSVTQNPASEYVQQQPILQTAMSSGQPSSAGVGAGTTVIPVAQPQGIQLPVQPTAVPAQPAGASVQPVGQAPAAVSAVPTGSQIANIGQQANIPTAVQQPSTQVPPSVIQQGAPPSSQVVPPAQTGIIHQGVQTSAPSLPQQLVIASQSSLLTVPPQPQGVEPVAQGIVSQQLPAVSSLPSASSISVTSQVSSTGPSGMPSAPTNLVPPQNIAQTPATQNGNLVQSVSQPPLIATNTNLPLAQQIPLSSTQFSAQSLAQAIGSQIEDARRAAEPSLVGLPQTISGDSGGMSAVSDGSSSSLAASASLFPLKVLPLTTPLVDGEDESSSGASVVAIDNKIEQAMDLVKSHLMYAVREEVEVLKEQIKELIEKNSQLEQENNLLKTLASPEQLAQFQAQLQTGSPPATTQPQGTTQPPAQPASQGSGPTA

TSC22D3 (human) = system: TSC22D3 (human)
TSNAXIP1 (human) = system: TSNAXIP1 (human)
TSPAN12 (human) = system: TSPAN12 (human)
TSPAN17 (human) = system: TSPAN17 (human)
TSPAN5 = molecular target: T2, TSPAN5 (UniProt P62079)
T2 sequence: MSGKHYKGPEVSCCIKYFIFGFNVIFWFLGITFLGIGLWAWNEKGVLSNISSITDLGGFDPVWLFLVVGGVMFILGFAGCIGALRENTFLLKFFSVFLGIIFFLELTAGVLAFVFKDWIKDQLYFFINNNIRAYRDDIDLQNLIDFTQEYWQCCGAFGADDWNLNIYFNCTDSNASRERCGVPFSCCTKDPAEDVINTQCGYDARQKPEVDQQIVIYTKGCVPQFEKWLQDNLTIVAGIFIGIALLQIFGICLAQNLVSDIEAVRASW

TSPY2 (human) = system: TSPY2 (human)
TSR2 (human) = system: TSR2 (human)
TSSK3 (human) = system: TSSK3 (human)
TSTA3 (human) = system: TSTA3 (human)
TTC1 (human) = system: TTC1 (human)
TTC32 (human) = system: TTC32 (human)
TTC8 (human) = system: TTC8 (human)
TTR (human) = system: TTR (human)
TTYH2 (human) = system: TTYH2 (human)
TUBA1C (human) = system: TUBA1C (human)
TUBA3E (human) = system: TUBA3E (human)
TUBB (human) = system: TUBB (human)
TUBE1 = molecular target: T3, TUBE1 (UniProt Q9UJT0)
T3 sequence: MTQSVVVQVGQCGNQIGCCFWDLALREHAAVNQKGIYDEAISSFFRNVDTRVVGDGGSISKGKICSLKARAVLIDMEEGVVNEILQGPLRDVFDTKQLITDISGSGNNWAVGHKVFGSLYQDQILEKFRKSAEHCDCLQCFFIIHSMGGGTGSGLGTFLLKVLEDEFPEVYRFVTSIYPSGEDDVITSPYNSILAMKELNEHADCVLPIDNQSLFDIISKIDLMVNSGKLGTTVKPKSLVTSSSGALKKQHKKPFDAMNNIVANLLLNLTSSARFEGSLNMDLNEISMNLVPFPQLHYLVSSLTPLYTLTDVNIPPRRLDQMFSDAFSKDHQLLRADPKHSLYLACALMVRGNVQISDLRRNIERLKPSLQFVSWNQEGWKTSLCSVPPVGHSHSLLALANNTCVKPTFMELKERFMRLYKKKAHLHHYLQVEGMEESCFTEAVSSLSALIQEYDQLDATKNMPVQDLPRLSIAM

TWSG1 (human) = system: TWSG1 (human)

## GGGAGGCTGAGGCAGG [G4-1 biotinylated (PQS2)]
TSC22D1
  binding signal: -0.335 z-score
TSC22D3 (human)
  binding signal: -0.347 z-score
TSNAXIP1 (human)
  binding signal: -0.351 z-score
TSPAN12 (human)
  binding signal: -0.341 z-score
TSPAN17 (human)
  binding signal: -0.326 z-score
TSPAN5
  binding signal: -0.33 z-score
TSPY2 (human)
  binding signal: -0.312 z-score
TSR2 (human)
  binding signal: -0.329 z-score
TSSK3 (human)
  binding signal: -0.313 z-score
TSTA3 (human)
  binding signal: -0.311 z-score
TTC1 (human)
  binding signal: -0.354 z-score
TTC32 (human)
  binding signal: -0.333 z-score
TTC8 (human)
  binding signal: -0.323 z-score
TTR (human)
  binding signal: -0.308 z-score
TTYH2 (human)
  binding signal: -0.294 z-score
TUBA1C (human)
  binding signal: -0.33 z-score
TUBA3E (human)
  binding signal: -0.339 z-score
TUBB (human)
  binding signal: -0.341 z-score
TUBE1
  binding signal: -0.341 z-score
TWSG1 (human)
  binding signal: -0.259 z-score
